Test results as given in publication PMC10743472.
Results are given in words; binding and its absence hold for the method and conditions named. Binding seen in cells or lysates may run through a third protein. Some binding calls cover weakened binding; strength is not graded here.

Sequences of proteins named here, by UniProt entry; tags and fusion partners are left off. Residues count along the entry.
UniProt Q9JHS4, residues 57-634: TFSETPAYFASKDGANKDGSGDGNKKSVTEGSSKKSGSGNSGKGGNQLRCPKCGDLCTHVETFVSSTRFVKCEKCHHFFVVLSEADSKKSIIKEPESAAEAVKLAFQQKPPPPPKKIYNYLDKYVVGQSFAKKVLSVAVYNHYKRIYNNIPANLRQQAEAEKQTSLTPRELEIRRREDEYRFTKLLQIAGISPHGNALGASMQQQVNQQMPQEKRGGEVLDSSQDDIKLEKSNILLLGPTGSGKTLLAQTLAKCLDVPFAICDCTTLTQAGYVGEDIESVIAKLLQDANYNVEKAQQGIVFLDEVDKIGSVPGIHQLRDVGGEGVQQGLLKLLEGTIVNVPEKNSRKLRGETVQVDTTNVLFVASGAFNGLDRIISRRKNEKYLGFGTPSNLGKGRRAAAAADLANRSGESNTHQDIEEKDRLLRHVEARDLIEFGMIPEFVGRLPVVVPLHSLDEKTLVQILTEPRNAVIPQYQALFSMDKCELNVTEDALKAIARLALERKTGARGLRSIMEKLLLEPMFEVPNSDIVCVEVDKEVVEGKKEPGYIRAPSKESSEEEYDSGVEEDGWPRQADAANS

Target: CLPX, specificity component of Clp protease complex, AAA+ ATPase (mouse (endogenous in mouse tissues)) (UniProt Q9JHS4)
Experiment: co-IP; mouse liver mitochondrial fractions, WT and CLPP-null; pull with anti-CLPX (Invitrogen) on Dynabeads, lysis buffer with 1% NP40, 137 mM NaCl, pH 8.0; immunoblot of endogenous proteins

B1: OAT, ornithine delta-aminotransferase, mitochondrial (enzyme, UniProt P29758 26-439)
chain: TSVATKKTEQGPPSSEYIFERESKYGAHNYHPLPVALERGKGIYMWDVEGRQYFDFLSAYGAVSQGHCHPKIIDAMKSQVDKLTLTSRAFYNNVLGEYEEYITKLFNYNKVLPMNTGVEAGETACKLARRWGYTVKGIQKYKAKIVFADGNFWGRTLSAISSSTDPTSYDGFGPFMPGFETIPYNDLPALERALQDPNVAAFMVEPIQGEAGVIVPDPGYLTGVRELCTRHQVLFIADEIQTGLARTGRWLAVDHENVRPDMVLLGKALSGGLYPVSAVLCDDEIMLTIKPGEHGSTYGGNPLGCRIAIAALEVLEEENLAENADKMGAILRKELMKLPSDVVTSVRGKGLLNAIVIRETKDCDAWKVCLRLRDNGLLAKPTHGDIIRLAPPLVIKEDEIRESVEIINKTILSF
- binding: binds
